This is an account of results in PMC6928916.

Amino acid sequences for entries named in this document (tags omitted).
UniProt Q80WG5: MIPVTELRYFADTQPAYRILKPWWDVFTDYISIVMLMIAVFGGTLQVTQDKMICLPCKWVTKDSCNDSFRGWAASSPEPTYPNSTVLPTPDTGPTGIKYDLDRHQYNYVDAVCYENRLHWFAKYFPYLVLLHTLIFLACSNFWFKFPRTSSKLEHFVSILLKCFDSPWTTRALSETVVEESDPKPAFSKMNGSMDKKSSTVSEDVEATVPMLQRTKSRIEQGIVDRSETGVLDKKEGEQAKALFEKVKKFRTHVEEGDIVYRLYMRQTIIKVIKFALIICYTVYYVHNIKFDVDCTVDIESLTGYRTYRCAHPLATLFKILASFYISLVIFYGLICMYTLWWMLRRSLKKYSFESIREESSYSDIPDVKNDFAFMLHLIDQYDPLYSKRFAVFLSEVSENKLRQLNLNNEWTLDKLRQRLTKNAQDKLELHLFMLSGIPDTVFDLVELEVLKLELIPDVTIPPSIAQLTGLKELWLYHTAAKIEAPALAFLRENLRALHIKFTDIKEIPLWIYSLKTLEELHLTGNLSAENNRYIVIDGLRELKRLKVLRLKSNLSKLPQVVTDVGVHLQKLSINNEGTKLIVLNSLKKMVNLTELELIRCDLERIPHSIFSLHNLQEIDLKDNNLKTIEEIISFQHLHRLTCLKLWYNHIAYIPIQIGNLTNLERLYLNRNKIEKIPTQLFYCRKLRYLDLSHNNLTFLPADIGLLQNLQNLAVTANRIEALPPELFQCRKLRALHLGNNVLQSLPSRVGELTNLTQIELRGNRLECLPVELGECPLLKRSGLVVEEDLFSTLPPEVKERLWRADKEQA
UniProt Q8R502: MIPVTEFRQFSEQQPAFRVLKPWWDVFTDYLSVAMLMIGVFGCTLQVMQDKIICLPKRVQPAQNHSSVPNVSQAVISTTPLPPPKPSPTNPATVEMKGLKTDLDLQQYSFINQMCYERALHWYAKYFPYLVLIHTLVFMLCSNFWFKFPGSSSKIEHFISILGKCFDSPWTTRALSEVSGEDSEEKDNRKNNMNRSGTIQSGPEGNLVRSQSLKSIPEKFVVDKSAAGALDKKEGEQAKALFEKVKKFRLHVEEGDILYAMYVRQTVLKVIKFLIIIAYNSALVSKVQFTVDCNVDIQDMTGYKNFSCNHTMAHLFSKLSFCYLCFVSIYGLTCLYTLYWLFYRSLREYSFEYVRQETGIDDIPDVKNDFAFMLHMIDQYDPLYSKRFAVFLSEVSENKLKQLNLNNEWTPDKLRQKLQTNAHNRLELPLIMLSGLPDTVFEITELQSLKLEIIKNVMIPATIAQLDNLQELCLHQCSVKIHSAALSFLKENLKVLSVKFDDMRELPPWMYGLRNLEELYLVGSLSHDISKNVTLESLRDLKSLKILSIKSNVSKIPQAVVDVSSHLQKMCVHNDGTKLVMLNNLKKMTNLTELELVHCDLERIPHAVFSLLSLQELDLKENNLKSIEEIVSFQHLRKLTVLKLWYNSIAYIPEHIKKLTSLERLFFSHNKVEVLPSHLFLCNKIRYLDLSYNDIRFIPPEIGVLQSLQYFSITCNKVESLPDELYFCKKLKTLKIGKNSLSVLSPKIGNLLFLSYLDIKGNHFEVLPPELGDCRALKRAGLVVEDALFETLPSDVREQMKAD
UniProt Q8BGR2: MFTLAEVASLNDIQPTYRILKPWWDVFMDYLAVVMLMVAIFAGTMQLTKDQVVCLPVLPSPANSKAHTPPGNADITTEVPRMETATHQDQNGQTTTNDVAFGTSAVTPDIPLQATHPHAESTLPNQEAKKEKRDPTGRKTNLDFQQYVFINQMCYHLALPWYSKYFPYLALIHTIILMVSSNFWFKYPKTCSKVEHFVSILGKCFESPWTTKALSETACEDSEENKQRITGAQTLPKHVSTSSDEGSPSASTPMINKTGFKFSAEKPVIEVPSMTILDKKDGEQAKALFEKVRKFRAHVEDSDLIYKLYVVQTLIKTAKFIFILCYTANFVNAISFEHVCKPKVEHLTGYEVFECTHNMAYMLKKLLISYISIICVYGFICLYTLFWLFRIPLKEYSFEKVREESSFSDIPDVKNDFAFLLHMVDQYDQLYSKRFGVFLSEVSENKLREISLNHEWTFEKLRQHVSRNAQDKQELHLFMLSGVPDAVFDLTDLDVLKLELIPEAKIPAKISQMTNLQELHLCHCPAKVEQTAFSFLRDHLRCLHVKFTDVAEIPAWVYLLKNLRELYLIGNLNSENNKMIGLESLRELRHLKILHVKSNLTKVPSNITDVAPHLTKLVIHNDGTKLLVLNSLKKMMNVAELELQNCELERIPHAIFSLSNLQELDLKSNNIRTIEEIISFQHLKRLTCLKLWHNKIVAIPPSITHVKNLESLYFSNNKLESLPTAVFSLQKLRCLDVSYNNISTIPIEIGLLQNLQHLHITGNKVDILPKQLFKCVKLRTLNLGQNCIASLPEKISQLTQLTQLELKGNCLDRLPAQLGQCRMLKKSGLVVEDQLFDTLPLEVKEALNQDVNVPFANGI
UniProt Q66JT1: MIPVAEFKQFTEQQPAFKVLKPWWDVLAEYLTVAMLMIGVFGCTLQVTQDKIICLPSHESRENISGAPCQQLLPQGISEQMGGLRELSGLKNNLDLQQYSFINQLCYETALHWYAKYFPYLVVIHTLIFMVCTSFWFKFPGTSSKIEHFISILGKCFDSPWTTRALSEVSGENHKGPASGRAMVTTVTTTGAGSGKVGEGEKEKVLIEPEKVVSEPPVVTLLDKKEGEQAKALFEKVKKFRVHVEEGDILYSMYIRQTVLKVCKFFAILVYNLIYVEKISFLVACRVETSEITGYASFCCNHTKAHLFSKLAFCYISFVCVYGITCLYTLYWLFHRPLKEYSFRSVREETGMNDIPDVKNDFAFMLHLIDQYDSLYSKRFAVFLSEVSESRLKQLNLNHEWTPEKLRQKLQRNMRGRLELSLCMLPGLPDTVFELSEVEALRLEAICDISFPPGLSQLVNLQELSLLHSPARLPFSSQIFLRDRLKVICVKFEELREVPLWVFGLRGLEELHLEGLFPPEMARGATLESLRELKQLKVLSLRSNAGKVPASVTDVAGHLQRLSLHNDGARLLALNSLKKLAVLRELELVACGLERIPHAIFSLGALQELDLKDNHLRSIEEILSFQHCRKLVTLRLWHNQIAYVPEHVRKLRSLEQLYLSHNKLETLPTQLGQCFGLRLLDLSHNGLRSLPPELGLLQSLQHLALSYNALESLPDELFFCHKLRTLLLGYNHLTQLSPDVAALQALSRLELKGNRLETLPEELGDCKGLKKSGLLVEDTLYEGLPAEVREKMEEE

The assay addresses LRRC8A (mouse (endogenous in C2C12 and 3T3)) (UniProt Q80WG5). Description: co-IP; 15 μg LRRC8A antibody added to cleared C2C12 or 3T3 lysate with 2 mg total protein (150 mM NaCl, 50 mM Tris-HCl pH 7.5, 1% NP-40, 0.5% sodium deoxycholate), Protein A Dynabeads overnight at 4 °C, four washes, immunoblot; LRRC8A-deficient cells as control. (In general: Immunoblotting shows a protein as a band on a membrane.)

These are yes or no findings as the source states them, for the method shown. In cells and extracts the contact can be indirect. Some entries that bind do so weakly or less than the wild type.

Take LRRC8C (from UniProt Q8R502 1-803): the binding entry is recorded as “binds”. To LRRC8D (from UniProt Q8BGR2 1-859) belongs “binds”; to LRRC8E (from UniProt Q66JT1 1-795), “binds”.

B1: LRRC8B (protein, UniProt Q5DU41 1-803)
chain: MITLTELKCLADAQSSYHILKPWWDVFWYYITLIMLLVAVLAGALQLTQSRVLCCLPCKVEFDNQCAVPWDLLKGSENASSNSGLLLPLPLRIQNDLHRQQYSYIDAVCYEKQLHWFAKFFPYLVLLHTLIFAACSNFWLHYPSTSSRLEHFVSILHKCFDSPWTTRALSETVAEQSVRPLKLSKSKTLLSTSGGSADIDASKQSLPYPQPGLESPGIESPTSSVLDKKEGEQAKAIFEKVKRFRLHVEQRDIIYRVYLKQIIVKVILFVLIITYVPYFLSYITLEIDCSIDVQAFTGYKRYQCVYSLAEIFKVLASFYVILVMLYGLTSSYSLWWMLRSSLKQYSFEALREKSNYSDIPDVKNDFAFILHLADQYDPLYSKRFSIFLSEVSENKLKQINLNNEWTVERLKSKLVKNSQDKVELHLFMLNGLPDNVFELTEMEVLSLELIPEVKLPAAVAQLVNLRELHVYHSSLVVDHPALAFLEENLRILRLKFTEMGKIPRWVFHLKNLKELYLSGCVLPEQLSSLHLEGFQDLKNLRTLYLKSSLSRIPQVVTDLLPSLQKLSLDNEGSKLVVLNNLKKMVNLKSLELLSCDLERIPHSIFSLNNLHELDLKENNLKTVEEIISFQHLPSLSCLKLWHNNIAYIPAQIGALSNLEQLFLGHNNIESLPLQLFLCTKLHYLDLSYNHLTFIPEEIQYLTNLQYFAVTNNNIEMLPDGLFQCKKLQCLLLGRNSLTDLSPLVGELSNLTHLELTGNYLETLPVELEGCQSLKRSCLIVEDSLLNSLPLPVAERLQTCLDKC
B1: the binding result was “binds”.
